At least one compound was matched to its structure with a doubt left.
Assays:
[1] = system: S. aureus COL; test: Bactericidal activity of human polymorphonuclear leukocytes (neutrophil killing); type: cell-based, Staphylococcus aureus; details: NP16-treated S. aureus COL
[2] = system: S. aureus COL; test: Murine model of intraperitoneal infection, S. aureus COL; type: in vivo, Staphylococcus aureus; details: BALB/c mice, 0.35 mg i.p. twice per day, days -1 to 2, 72 hours, P<0.01
[3] = system: S. aureus strain AE052; test: Murine model of intraperitoneal infection, clinical isolate AE052; type: in vivo, Staphylococcus aureus

With `O=C(/C=C/c1ccccc1)Nc1ccc(S(=O)(=O)N2CCCC2)cc1` [Compound 1, 3-phenyl-N-[4-(1-pyrrolidinylsulfonyl)phenyl]acryl-amide] the “Susceptibility to killing by neutrophils” value [1] was “increased susceptibility”, the “Bacterial counts in the livers vs control group” value [2] was “significantly lower” and the “Bacterial counts in the spleens vs control group” value [2] was “significantly lower”. For the same molecule, the “Mice with kidney bacterial counts below the detection threshold” value ([3]; AE052, n=10, control group 2 of 10) was 6 of 10 and the “Bacterial counts in the kidneys vs control group” value ([3]; BALB/c mice, AE052, 0.35 mg i.p. twice per day, 72 hours, P<0.001) was “significantly lower”.

— patent publication US11446280B2, “Compounds and methods for the treatment of microbial infections” (Versitech Limited, priority 2017, dated 2022)
